In PubChem BioAssay AID1347423 (Functional Genomics Laboratory (NCATS/FGL), 2020) one finds z-score data, which are given here for 66 sequences.

In all, about 52,000 sequences went through this assay and about 210 (0.4%) were called active.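 How the source made its calls: active means gene whose silencing raises cell survival under the drug, median off-target-corrected z-score across its silencing RNAs 2 or more; inactive means the rest.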 Some of the results follow.

This experiment is described as follows: Resistance to Poly (ADP-Ribose) Polymerase inhibitor: Gene Identification via Genome-wide siRNA Screen. Conditions: mouse BRCA2 R2336H ES cells, olaparib, CellTiter-Glo viability; stronger effect = higher value. The gist of the method:
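Mouse BRCA2 R2336H ES cells were reverse-transfected with siRNA (20 nM final), treated at 48 h with 500 nM olaparib, and read by CellTiter-Glo after 72 h. Scores: MAD-based z per siRNA, median per gene, seed off-target correction.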
On the technique in general: In ATP-based viability assays light output follows the ATP content of the culture.
Take GGAACUCGUCAUGAGAGAATT against Cndp1: the z-score is inactive: 0.299.

In the case of GGGUGAAAAAGGAAUAAAGTT against Col7a1, the z-score is inactive: 1.23.

Turning to CCAAAUUGCUUACAUGAUATT against Greb1, the z-score was inactive: 1.07.

Turning to GCUUUCCACCACGUACUGATT against Plekha6, the z-score is inactive: 0.286.

Turning to CCUAUGAAGCUCCAUUAUGTT against Madcam1, the z-score is inactive: 0.762.

With GCUCCAUGGAUAUUUCUGGTT against Pias1, the z-score is inactive: 0.971.

Regarding GGCCAGGAAAGCUACUUAGTT against Kcnj11, the z-score was inactive: -0.256.

“GCCGACCAGUUCCUAGUGATT against 1500002M01Rik”: the z-score is inactive: -0.907.

Turning to GCAUCUGCCAAAUUCAAUGTT against Hsf4, the z-score was inactive: -0.94.

“GGAUCACAGCAGAAGAAAUTT against 5730537D05Rik”: the z-score was inactive: -2.31.

With GCCACACUGAAAUAAUUUGTT against Slco1a4, the z-score is inactive: 0.896.

In the case of “CCACCAUGCUUCUAAGCCUTT against 4921511C16”, the z-score was inactive: 0.8.

For the sequence GUCUUGCGUGACAACAUCCTT against Hist2h4, the z-score was inactive: -1.34.

As for GUCAGAACCAUAGCCAUGATT against V1ri7, the z-score is inactive: 0.723.

For the sequence “GCAUCGCCAUCUAUAACUCTT against E230025K15”, the z-score was inactive: 0.721.

In the case of “GCUUGCUUGACCUAACUAGTT against D6Ertd538e”, the z-score was inactive: 0.935.

GGAUAGACAGAAAUUCUCATT against Flot1: the z-score was inactive: -0.724.

For “CCUGAUUGGGAUCUCAAGATT against 2700094L05Rik”, the z-score was inactive: -0.425.

As for GGUACAUUGGCAUUGUGAATT against Hnrpf, the z-score is inactive: 0.344.

Turning to “CCUCUACAUCAGAGUAUGATT against 4930525K10Rik”, the z-score was inactive: -0.765.

As to GGACUUUCUCUAGGAUCCATT against Slamf8, the z-score was inactive: -0.0842.

In the case of GGAACAAUUGUUCCUGUGATT against Kcne1, the z-score is inactive: -0.318.

Turning to CAUUGGUAUUGCCAAGGCATT against Olfr1330, the z-score was inactive: -0.872.

On to “GGCUGUCCAACAAGCAGAGTT against 9430067K14Rik”, for which the z-score is inactive: -0.0984.

Regarding CCGAUUUAAUCUCUUAGAATT against Ets2, the z-score is inactive: -0.98.

Consider “CGGGAUAGUAACUUCUUAATT against 2310038H17Rik”, for which the z-score was inactive: -0.872.

“CCAAAGAGAUCCCAUACAATT against 1700013B16Rik”: the z-score was inactive: -0.651.

GGAGGAAAAAUGAAAAGUATT against Clpx: the z-score is inactive: 0.132.

In the case of GCAGCAGUAAUAGUCAUACTT against Ccnj, the z-score is inactive: 1.7.

With CCUGACCUAAUCGAGAAUGTT against Speer2, the z-score was inactive: 1.42.

As for GCCUUAGGAUACUACUGUUTT against Map3k3, the z-score was inactive: -1.57.

Consider GGGAAAGUGUGUAAUAAAUTT against AU040377, for which the z-score is inactive: 0.918.

As for GGAGAACCCAUGUAACUGUTT against Tcl1b1, the z-score was inactive: 0.17.

On to “CGGCGAUGGAAAAAAAUUUTT against 2810417M05Rik”, for which the z-score is inactive: 1.66.

For CGUGUGUUCCGGAAACAGATT against Tnfrsf11b, the z-score is inactive: -0.172.

Consider CCUUAUUGUGACAGAAGUATT against Tnc, for which the z-score is inactive: 0.0549.

GCUAAGAGUACAUUGUAACTT against Tmeff2: the z-score was inactive: 0.267.

As to “GGAUCAGAACUUAUCUGUGTT against D530033C11Rik”, the z-score was inactive: -0.73.

As for GCCACAUAGAUCGCAUGGUTT against Lox, the z-score was inactive: -1.58.

For the sequence “GGCACAAGUAAAGGUAGUCTT against 4930430A15Rik”, the z-score was inactive: 0.265.

For GGAACAAUAUUGAUGAUGUTT against Pten, the z-score was inactive: 0.613.

Turning to GGGUUCUCCAAUGCUUACATT against Mrps23, the z-score is inactive: 0.213.

As for CCCAGGUAGAUCCUAUCCUTT against Mllt7, the z-score is inactive: 0.8.

On to “CCCGUUGUAUACAAAUACCTT against D7Ertd743e”, for which the z-score was inactive: 0.084.

In the case of “GCCUGUAAGACUGUACUGGTT against 1110021N19Rik”, the z-score is inactive: -0.158.

Regarding GGACCACCAUUGUGAUCCATT against Kcnk2, the z-score was inactive: 0.409.

GCAUAUUUCUAAGCUGCAUTT against Qdpr: the z-score was inactive: -1.25.

Consider “GGUCAACCUUCUGAAGCAGTT against C230069K22Rik”, for which the z-score was inactive: -1.31.

For the sequence CCUAUCAACCUAAACUCCATT against Car8, the z-score is inactive: -0.524.

With “GGAUGCUUUGAAAUAAAACTT against 1110032A04Rik”, the z-score is inactive: 2.58.

GCACGAGGAUGUGAUAUUCTT against Txndc2: the z-score was inactive: -0.96.

For GCCUUCAUCAAAAAACACUTT against Txndc2, the z-score is inactive: 1.36.

For the sequence GGUCACUUGGAAUUUGUAATT against Gata6, the z-score is inactive: 0.566.

On to CCAGUAACCAGUGCAAUCATT against Tnp2, for which the z-score is inactive: -2.45.

Turning to GGACAUGUUUGUGUUAAAGTT against Catna1, the z-score was inactive: 0.34.

Consider GGAAAUCAGUGUCUUUUACTT against Sumf1, for which the z-score was inactive: 1.38.

Take GGGCAUCAGCUAUUAAAGATT against Tpmt: the z-score is inactive: -0.405.

Regarding GUUUAAAACCUAUGGCAUCTT against Rps21, the z-score is inactive: -3.4.

“GGCCGUCAGCUUUACACAGTT against 4921521N14Rik”: the z-score is inactive: -0.287.

For GGAAGAACUCUCAGAAAAATT against Txk, the z-score is inactive: -0.45.

As for GGAUAGUAACGGAAACUUGTT against Usp25, the z-score was inactive: 2.49.

In the case of GGAACAAAUAAAGGUAAACTT against Ncoa6ip, the z-score was inactive: 2.61.

In the case of CCGUAAUCGCUGCUUCAUATT against Cideb, the z-score was inactive: -0.32.

Turning to GCCUAGAUACAGCUCCUUGTT against Clybl, the z-score is inactive: -0.403.

For “CGAACUUUGUCAUGUCCAUTT against 9930111J21Rik”, the z-score was inactive: 1.68.

Turning to “CGCCUUUUGGAAUAUUUCATT against 2900024O10Rik”, the z-score was inactive: -0.704.
